Measured values from PubChem BioAssay AID485314 (National Center for Advancing Translational Sciences (NCATS), 2010).
About 4,500 (1.3%) of roughly 340,000 compounds were called active. The shares of active, inactive and inconclusive entries below differ from those in the screen. Calls come from the whole dose curve; as a rule, active = well fitted inhibition curve with a large enough effect; inconclusive = small, poorly fitted or top-dose-only effect, or another doubt; inactive = no such curve, though single readings can be large or run the other way. Potencies beside an inconclusive call are fits to weak or partial responses and may not hold up.

Target: DNA polymerase beta (Homo sapiens) (UniProt P06746)
Test: qHTS Assay for Inhibitors of DNA Polymerase Beta
Conditions: Pol beta primer extension/strand displacement, fluorescence kinetic; activity change, negative = inhibition: at 114 µM (top of the series)
Procedure, shortened: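 Pol beta (10 nM) was preincubated with compound for 15 min at room temperature. The reaction was then started with 50 nM substrate and read immediately and after a further 10 min at room temperature.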
% is set by controls: 0 for no effect and ±100 for the full control effect; potency is the fitted concentration of half-maximal effect.

| SMILES | Potency | activity change, negative = inhibition |
| --- | --- | --- |
| Cc1ccc(OCC(=O)Nc2ccc(-c3nc4ncccc4o3)cc2)c(C)c1 | inconclusive: 25.1 µM [inhibitor, partial curve] | – |
| COc1ccc(CC(=O)Nc2ccccc2NC(=O)c2ccco2)cc1OC | inconclusive: 79.4 µM [inhibitor, single point] | – |
| O=C(CSc1ccsc1[N+](=O)[O-])Nc1cc(F)ccc1F | active: 12.6 µM | – |
| Cc1c(NC(=S)NNC(=O)CCC(=O)O)c(=O)n(-c2ccccc2)n1C | – | inconclusive: -47.7% [inhibitor] |
| CCCC(C)NC(=O)c1c2c(nc3ccccc13)CCC2 (centres undefined) | active: 17.8 µM | – |
| COc1ccc(C2C(C(=O)O)c3ccccc3C(=O)N2C)cc1Br (centres undefined) | inconclusive: 89.1 µM [inhibitor, single point] | – |
| CCC(Sc1nc(-c2cccc(OC)c2)c(C#N)c(=O)[nH]1)C(=O)Nc1nnc(C(C)C)s1 (centres undefined) | – | inactive: -21.8% |
| COc1cc(NC(=O)c2ccco2)c(OC)cc1NC(=O)CSc1nnc(-c2cccs2)n1C | inconclusive: 56.2 µM [inhibitor, partial curve] | – |
| COc1ccccc1Nc1nn2c(=O)c3ccc(C(=O)NCc4cccnc4)cc3nc2s1 | inconclusive: 89.1 µM [inhibitor, single point] | – |
| Cc1ccccc1NC(=S)NCc1ccc(F)cc1 | inconclusive: 22.4 µM [inhibitor, single point] | – |
| Cc1ccc(NC(=O)c2noc3c2CCC3)cc1C | inconclusive: 10 µM [inhibitor, full curve, poor fit] | – |
| COCCCNC(=O)c1ccc(Cn2c(=O)c3ccccc3n(CC(=O)Nc3c(C)cccc3C)c2=O)cc1 | active: 50.1 µM | – |
| Nc1nc2ncc(C(=O)c3cc(F)ccc3O)cc2s1 | – | inactive: 25.3% |
| Cc1cccc(CCNC(=O)C2CCC(CNS(=O)(=O)c3ccccc3)CC2)c1 (centres undefined) | – | inactive: -5.11% |
| CCCC(CCC)C(=O)Nc1cccc(-c2nc3cccnc3s2)c1C | – | inactive: -11.4% |
| COc1cccc(-c2nc(CS(=O)(=O)CC(=O)NCCc3ccc(OC)cc3OC)c(C)o2)c1 | inconclusive: 12.6 µM [inhibitor, partial curve, poor fit] | – |
| CCCC(=O)NC(c1ccc(C)cc1)c1ccc2cccnc2c1O (centres undefined) | – | inactive: 19.2% |
| OCC1(Cc2cccc(C(F)(F)F)c2)CCN(Cc2cc3ccccc3o2)CC1 | inconclusive: 0.158 µM [inhibitor, full curve, poor fit] | – |
| CCC(C(=O)NCCc1ccccc1)n1nc(C)c2sc3ccccc3c2c1=O (centres undefined) | inconclusive: 56.2 µM [inhibitor, single point] | – |
| O=C(Cc1cccs1)Nc1ccc(-c2nnn(CC(=O)N3CCOCC3)n2)cc1 | active: 17.8 µM | – |
| O=C(C1CCN(c2ncnc3c2nc2n3CCCCC2)CC1)N1CCN(c2ccccc2F)CC1 | – | inconclusive: -33% [inhibitor] |
| Cc1nc2ncnn2c(N2CCN(C(=O)Cc3cccs3)CC2)c1C | active: 20 µM | – |
| O=C1C=C(Nc2ccccc2)c2ccccc2C1=O | – | inactive: -2.22% |

| SMILES | Potency | activity change, negative = inhibition |
| --- | --- | --- |
| COc1cccc(-c2ccc(=O)n(CC(=O)Nc3ccc(S(=O)(=O)NCC(C)C)cc3)n2)c1 | inconclusive: 1.12 µM [inhibitor, full curve, poor fit] | – |
| Cc1cccc(NC(=O)CSc2ncc(-c3ccccc3)[nH]2)c1C | – | inactive: 0.698% |
| Cc1ccc(NC(=O)NCC2CCN(Cc3cc(C)ccc3Cl)CC2)c(C)c1 | inconclusive: 35.5 µM [inhibitor, single point] | – |
| CCCCC#Cc1ccc(C(=O)NNC(=O)Nc2cc(Cl)cc(Cl)c2)o1 | inconclusive: 79.4 µM [inhibitor, single point] | – |
| Cn1c(SCC(=O)NCc2ccc3c(c2)OCO3)nc2c(c1=O)SCC2 | inconclusive: 39.8 µM [inhibitor, full curve, poor fit] | – |
| Cc1sc2nc(-c3cccnc3)nc(Cl)c2c1-c1ccccc1 | inconclusive: 89.1 µM [inhibitor, single point] | – |
| O=C(c1nnc(Cc2ccc(Cl)cc2)o1)N1CCOCC1 | inconclusive: 89.1 µM [inhibitor, single point] | – |
| COc1ccccc1CCNC(=O)Cc1ccc(NC(=O)N2CCSc3ncccc32)cc1 | inconclusive: 100 µM [inhibitor, single point] | – |
| COc1ccc(C2CC(c3ccc(Cl)cc3Cl)Nc3nc(N)nn32)cc1 (centres undefined) | inconclusive: 89.1 µM [inhibitor, single point] | – |
| O=C(/C=C1\NC2(CCCC2)Cc2ccccc21)C(=O)N/N=C/c1ccc(O)c(O)c1 | active: 2 µM | – |
| CCOc1ccc(CN2CCN(c3cc(C)nc4c5c(C)cc(C)nc5nn34)CC2)cc1 | inconclusive: 100 µM [inhibitor, single point] | – |
| CCCCNC(=O)C1CCC(Cn2c(=O)c3sccc3n(Cc3ccccc3)c2=O)CC1 (centres undefined) | – | inactive: 25.3% |
| CNC(=O)COC(=O)c1cc(-c2ccco2)nc2ccccc12 | active: 3.55 µM | – |
| Cc1ccc(SCCC(=O)OCC(=O)Nc2ccc(S(N)(=O)=O)cc2)cc1 | inconclusive: 20 µM [inhibitor, full curve] | – |
| CC1=C(C(=O)OC2CCCC2)C(c2c(Cl)cccc2Cl)CC(=O)N1 (centres undefined) | inconclusive: 89.1 µM [inhibitor, single point] | – |
| CCN(CC)S(=O)(=O)c1ccc2[nH]cc(C(=O)NCCc3ccc(OC)c(OC)c3)c(=O)c2c1 | inconclusive: 79.4 µM [inhibitor, partial curve] | – |
| CO/N=C/c1c(-c2ccc(Cl)cc2)nc2cc(C)ccn12 | inconclusive: 79.4 µM [inhibitor, single point] | – |
| COc1ccccc1Nc1nc(N)nc(CN2CCC(Cc3ccccc3)CC2)n1 | inconclusive: 56.2 µM [inhibitor, partial curve] | – |
| COc1cc(/C=C2\NC(=S)NC2=O)ccc1OCc1cccc(C(=O)O)c1 | inconclusive: 56.2 µM [inhibitor, partial curve] | – |
| Cc1cc(=O)oc2cc(OCc3ccc(C(=O)OCC(=O)NC4CCS(=O)(=O)C4)cc3)ccc12 (centres undefined) | active: 3.55 µM | – |
| Cc1ccccc1CSc1nnc2[nH]c(=O)cc(-c3ccccc3)n12 | – | inactive: 3.12% |
| CCc1ccc(-n2c(=O)c3c4c(sc3n(Cc3cc(=O)n5c(C)cccc5n3)c2=O)CCC4)cc1 | – | inactive: 7.01% |

| SMILES | Potency | activity change, negative = inhibition |
| --- | --- | --- |
| CCOc1ccc(S(=O)(=O)NC(C)C(=O)NCc2ccncc2)cc1 (centres undefined) | inconclusive: 89.1 µM [inhibitor, single point] | – |
| CN(C)S(=O)(=O)Oc1ccc(Cl)cc1C(=O)Nc1cccc(C(F)(F)F)c1 | inconclusive: 39.8 µM [inhibitor, single point] | – |
| Cc1cc(C(=O)O)ccc1-c1ccc(CO)o1 | – | inactive: 4.02% |
| CCCCOCCCNC(=O)c1ccc([N+](=O)[O-])c(C)c1 | inconclusive: 0.794 µM [inhibitor, full curve, poor fit] | – |
| Cc1ccsc1C=Nc1ccc(O)cc1 | inconclusive: 89.1 µM [inhibitor, single point] | – |
| CC1(C)Cc2c(cnn2-c2ccc(F)cc2)C(NC(=O)c2ccoc2)C1 (centres undefined) | – | inconclusive: -33.7% [inhibitor] |
| CCOC(=O)c1c(C)[nH]c(C)c1S(=O)(=O)N1CCC(C(=O)Nc2ccc(OCC)cc2)CC1 | inconclusive: 89.1 µM [inhibitor, single point] | – |
| COc1cccc(OCc2cc(C(=O)N(C)Cc3nccn3C)no2)c1 | – | inconclusive: -32.9% [inhibitor] |
| O=C1CCC(=O)N(O)CCCCCNC(=O)CCC(=O)N(O)CCCCCNC(=O)CCC(=O)N(O)CCCCCN1 | inconclusive: 1.41 µM [inhibitor, full curve, poor fit] | – |
| Cc1cc(C)cc(NC(=O)Nc2cc(-c3ccccc3)nn2C)c1 | inconclusive: 89.1 µM [inhibitor, single point] | – |
| Cc1cc(NC(=O)CCn2c(=O)c3cccn3c3cccnc32)ccc1Br | – | inactive: -1.57% |
| CC(=O)SCC[N+](C)(C)C | inconclusive: 5.01 µM [inhibitor, single point] | – |
| CCSc1ncc(Cl)c(C(=O)Nc2nc3ccc(S(C)(=O)=O)cc3s2)n1 | – | inactive: 1.82% |
| O=[N+]([O-])c1ccc(/C=N/n2c(-c3ccccc3)n[nH]c2=S)cc1 | inconclusive: 50.1 µM [inhibitor, partial curve] | – |
| O=C(NC1CCCCC1)N1CCN(C2CCCCC2)CC1 | inconclusive: 1 µM [inhibitor, full curve] | – |
| Cc1ccc(NC(=O)C2CCCN(S(=O)(=O)c3cccc4nsnc34)C2)cc1C (centres undefined) | inconclusive: 5.62 µM [inhibitor, full curve, poor fit] | – |
| O=C(CSc1nc(Nc2ccccc2)nc(N2CCOCC2)n1)Nc1ccccc1Cl | inconclusive: 79.4 µM [inhibitor, single point] | – |
| CCCn1c(CCC(=O)Nc2cc(C(=O)OC)cc(C(=O)OC)c2)nc2cccnc21 | – | inactive: 6.12% |
| CCOc1ccccc1-c1nc(-c2ccc(NC(=O)Cc3ccc(OC)cc3)cc2)no1 | active: 31.6 µM | – |
| COc1cc(/C=N/NC(=O)C(Cc2c[nH]c3ccccc23)NC(=O)OCC(C)C)cc([N+](=O)[O-])c1O (centres undefined) | inconclusive: 25.1 µM [inhibitor, full curve, poor fit] | – |
| Cc1ccc(-c2cc(C(=O)Nc3ccc(S(=O)(=O)N4CC(C)OC(C)C4)cc3)[nH]n2)c(O)c1 (centres undefined) | active: 17.8 µM | – |
| OCCSc1nc(-c2ccccc2)nc2ccc(F)cc12 | inconclusive: 0.708 µM [inhibitor, full curve, poor fit] | – |
| CCN(CC)CCN(C(=O)C1=COCCO1)c1nc2cc(C)cc(C)c2s1 | inconclusive: 89.1 µM [inhibitor, single point] | – |

Reformatted: entries from further up.
SMILES | Potency | activity change, negative = inhibition
CCCC(=O)NC(c1ccc(C)cc1)c1ccc2cccnc2c1O (centres undefined) | – | inactive: 19.2%
CCOC(=O)c1c(C)[nH]c(C)c1S(=O)(=O)N1CCC(C(=O)Nc2ccc(OCC)cc2)CC1 | inconclusive: 89.1 µM [inhibitor, single point] | –
Cc1cc(NC(=O)CCn2c(=O)c3cccn3c3cccnc32)ccc1Br | – | inactive: -1.57%
